{
  "sequences": {"note": "By UniProt entry, the sequences of proteins in these tests, tags left out. Where a name states a change or a piece, a line headed by the entry shows the natural chain unless it says otherwise.", "UniProt Q92934": "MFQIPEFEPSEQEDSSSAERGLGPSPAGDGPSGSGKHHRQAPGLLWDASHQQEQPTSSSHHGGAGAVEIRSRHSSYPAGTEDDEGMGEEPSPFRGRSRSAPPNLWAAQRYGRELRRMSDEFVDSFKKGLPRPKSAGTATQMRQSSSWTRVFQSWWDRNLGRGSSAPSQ", "UniProt P54687": "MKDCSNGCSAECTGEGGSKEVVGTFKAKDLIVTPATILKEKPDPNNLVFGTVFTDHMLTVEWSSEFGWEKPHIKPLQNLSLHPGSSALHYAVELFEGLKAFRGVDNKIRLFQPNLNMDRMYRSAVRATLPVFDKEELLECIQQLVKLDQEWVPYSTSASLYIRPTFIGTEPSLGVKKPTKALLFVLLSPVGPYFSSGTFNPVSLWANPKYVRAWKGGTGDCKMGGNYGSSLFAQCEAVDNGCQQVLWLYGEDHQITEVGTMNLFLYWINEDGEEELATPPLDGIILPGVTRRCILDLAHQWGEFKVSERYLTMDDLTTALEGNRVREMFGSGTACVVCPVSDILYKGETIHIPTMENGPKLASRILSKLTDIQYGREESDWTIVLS", "UniProt Q99933": "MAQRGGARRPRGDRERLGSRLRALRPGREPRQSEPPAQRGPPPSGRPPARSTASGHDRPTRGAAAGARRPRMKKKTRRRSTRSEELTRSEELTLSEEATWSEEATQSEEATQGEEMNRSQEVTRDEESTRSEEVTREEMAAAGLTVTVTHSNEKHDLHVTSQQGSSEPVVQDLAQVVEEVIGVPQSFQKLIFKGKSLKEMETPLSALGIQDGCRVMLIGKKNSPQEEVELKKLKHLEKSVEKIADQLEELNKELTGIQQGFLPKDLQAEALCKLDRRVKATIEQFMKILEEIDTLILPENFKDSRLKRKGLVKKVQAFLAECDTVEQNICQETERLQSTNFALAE", "UniProt Q8N5M1": "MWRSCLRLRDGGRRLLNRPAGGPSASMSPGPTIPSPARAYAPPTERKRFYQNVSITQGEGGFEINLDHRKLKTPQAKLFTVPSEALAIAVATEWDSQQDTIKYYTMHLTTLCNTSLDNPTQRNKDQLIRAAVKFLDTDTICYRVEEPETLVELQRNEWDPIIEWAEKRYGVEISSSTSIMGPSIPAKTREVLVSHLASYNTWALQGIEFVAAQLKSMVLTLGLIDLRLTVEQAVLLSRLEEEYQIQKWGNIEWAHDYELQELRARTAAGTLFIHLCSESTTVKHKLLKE", "UniProt Q9NQS1": "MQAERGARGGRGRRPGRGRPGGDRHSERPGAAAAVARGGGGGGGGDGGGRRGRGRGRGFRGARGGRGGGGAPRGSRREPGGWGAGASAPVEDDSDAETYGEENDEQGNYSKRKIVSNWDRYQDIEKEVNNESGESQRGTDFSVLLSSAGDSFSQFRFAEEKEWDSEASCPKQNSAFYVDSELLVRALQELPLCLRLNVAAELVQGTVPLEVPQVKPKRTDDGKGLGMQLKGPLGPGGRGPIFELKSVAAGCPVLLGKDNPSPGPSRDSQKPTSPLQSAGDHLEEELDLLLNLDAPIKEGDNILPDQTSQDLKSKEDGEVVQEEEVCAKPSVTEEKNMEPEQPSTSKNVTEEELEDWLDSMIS", "UniProt Q9NZ63": "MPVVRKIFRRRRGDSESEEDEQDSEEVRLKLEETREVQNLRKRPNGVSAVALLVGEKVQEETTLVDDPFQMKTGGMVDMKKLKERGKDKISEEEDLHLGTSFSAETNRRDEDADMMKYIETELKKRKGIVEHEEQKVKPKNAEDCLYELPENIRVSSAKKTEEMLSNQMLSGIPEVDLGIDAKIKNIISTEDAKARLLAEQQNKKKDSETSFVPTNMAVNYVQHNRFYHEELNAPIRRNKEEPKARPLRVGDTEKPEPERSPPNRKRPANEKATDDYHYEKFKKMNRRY", "UniProt Q7Z3D6": "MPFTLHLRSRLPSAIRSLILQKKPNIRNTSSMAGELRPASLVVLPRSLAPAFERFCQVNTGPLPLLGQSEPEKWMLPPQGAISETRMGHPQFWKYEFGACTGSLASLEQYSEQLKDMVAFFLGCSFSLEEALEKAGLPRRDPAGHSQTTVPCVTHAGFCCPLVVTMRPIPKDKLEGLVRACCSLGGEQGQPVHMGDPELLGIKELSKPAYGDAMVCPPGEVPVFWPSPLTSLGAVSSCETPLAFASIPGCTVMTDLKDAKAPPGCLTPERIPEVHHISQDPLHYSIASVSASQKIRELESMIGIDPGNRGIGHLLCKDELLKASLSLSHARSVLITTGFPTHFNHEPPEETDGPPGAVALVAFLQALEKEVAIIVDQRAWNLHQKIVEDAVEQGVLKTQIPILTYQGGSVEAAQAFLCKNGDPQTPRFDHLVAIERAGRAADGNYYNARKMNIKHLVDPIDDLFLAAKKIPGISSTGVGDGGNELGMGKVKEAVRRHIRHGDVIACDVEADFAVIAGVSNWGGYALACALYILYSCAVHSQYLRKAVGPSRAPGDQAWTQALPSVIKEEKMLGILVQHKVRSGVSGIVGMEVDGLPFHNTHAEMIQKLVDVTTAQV", "UniProt P30043": "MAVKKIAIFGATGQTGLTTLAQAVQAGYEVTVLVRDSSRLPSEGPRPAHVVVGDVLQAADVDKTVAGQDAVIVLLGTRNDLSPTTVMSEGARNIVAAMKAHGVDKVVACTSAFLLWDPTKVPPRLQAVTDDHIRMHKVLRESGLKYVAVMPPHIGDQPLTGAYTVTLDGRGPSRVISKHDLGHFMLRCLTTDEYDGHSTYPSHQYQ", "UniProt Q9BVC5": "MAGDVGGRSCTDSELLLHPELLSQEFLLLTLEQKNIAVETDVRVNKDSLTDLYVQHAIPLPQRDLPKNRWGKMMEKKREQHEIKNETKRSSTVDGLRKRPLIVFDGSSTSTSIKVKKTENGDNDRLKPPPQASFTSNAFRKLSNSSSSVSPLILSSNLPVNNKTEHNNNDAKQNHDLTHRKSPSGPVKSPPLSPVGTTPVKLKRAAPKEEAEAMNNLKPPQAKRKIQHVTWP", "UniProt Q9BYV9": "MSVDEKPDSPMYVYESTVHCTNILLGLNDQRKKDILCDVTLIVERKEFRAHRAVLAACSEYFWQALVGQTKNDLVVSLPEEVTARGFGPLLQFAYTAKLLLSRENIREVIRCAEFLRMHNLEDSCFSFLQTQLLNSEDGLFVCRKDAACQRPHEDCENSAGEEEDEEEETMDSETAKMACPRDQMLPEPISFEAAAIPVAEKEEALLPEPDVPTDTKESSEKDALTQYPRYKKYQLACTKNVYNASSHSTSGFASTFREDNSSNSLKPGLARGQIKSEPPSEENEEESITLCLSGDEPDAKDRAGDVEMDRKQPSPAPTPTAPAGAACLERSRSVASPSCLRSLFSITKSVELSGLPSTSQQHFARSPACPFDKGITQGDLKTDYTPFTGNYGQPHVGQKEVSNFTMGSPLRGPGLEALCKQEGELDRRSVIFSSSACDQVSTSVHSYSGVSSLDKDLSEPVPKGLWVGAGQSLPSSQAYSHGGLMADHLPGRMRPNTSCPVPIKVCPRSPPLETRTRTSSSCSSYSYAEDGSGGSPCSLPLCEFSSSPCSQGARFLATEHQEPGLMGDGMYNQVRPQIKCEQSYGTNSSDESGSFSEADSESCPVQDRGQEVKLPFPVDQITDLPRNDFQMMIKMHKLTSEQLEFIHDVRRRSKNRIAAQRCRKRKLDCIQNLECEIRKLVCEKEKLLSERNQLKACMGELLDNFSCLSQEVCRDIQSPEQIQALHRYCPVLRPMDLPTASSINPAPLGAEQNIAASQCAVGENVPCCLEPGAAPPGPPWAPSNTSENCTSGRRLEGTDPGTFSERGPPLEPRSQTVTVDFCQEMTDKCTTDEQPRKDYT", "UniProt O00244": "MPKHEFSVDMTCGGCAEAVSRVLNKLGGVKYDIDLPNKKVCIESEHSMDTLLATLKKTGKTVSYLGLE", "UniProt Q9Y224": "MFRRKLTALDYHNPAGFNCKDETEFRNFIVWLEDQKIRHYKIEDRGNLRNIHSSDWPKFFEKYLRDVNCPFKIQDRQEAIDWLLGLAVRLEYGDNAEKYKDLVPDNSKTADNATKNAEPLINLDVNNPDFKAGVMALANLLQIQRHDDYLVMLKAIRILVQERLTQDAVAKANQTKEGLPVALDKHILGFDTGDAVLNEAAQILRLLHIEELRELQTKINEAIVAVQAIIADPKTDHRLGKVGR", "UniProt Q8TD16, whole entry": "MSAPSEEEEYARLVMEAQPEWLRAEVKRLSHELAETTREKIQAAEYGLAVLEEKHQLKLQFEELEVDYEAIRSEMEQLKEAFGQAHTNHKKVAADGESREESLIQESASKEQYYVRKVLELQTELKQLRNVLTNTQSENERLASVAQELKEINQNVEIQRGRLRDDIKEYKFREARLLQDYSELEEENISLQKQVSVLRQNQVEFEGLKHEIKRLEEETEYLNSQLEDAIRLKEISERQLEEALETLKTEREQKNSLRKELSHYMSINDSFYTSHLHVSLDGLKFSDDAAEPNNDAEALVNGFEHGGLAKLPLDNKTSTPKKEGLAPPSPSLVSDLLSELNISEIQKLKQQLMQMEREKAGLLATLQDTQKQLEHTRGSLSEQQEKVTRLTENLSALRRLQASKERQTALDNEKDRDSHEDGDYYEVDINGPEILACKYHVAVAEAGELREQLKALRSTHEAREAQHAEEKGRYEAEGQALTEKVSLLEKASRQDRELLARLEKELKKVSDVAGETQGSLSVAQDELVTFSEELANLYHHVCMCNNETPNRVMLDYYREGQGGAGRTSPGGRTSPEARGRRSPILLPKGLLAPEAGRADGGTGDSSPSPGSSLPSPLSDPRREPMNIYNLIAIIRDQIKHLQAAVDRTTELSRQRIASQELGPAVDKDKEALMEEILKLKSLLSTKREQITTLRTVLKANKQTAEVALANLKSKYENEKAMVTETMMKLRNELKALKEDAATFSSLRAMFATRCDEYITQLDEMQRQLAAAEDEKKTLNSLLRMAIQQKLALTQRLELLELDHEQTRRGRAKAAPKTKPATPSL", "UniProt Q16864, whole entry": "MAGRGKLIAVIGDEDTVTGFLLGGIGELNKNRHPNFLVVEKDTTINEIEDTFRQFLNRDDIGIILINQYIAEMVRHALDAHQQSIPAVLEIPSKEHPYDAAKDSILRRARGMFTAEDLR", "UniProt Q9NWX5": "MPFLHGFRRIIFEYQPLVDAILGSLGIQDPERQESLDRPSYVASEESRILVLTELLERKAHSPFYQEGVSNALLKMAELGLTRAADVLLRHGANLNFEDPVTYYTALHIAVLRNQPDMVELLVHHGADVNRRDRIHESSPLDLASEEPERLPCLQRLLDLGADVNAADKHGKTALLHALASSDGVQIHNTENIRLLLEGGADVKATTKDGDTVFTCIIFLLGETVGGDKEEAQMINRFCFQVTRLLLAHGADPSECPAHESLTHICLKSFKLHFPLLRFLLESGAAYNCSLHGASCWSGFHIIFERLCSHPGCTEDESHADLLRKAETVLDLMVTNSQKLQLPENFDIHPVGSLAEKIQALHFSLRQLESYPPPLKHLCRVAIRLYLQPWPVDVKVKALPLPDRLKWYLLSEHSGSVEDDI", "UniProt O95817, whole entry": "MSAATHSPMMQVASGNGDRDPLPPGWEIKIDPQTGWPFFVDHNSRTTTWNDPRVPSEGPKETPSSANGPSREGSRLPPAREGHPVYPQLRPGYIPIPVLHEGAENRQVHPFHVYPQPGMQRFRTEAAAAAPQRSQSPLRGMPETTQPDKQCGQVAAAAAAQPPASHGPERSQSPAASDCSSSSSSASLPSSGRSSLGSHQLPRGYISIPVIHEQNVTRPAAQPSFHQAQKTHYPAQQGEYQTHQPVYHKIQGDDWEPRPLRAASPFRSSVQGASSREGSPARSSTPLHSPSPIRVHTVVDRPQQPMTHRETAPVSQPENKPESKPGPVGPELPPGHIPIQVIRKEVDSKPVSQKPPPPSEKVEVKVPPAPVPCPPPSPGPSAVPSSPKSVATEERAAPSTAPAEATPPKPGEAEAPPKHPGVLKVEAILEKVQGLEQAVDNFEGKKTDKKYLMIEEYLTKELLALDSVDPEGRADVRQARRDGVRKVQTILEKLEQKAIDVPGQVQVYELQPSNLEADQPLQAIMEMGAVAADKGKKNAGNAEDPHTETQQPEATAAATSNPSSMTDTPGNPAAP", "UniProt Q8N8R7": "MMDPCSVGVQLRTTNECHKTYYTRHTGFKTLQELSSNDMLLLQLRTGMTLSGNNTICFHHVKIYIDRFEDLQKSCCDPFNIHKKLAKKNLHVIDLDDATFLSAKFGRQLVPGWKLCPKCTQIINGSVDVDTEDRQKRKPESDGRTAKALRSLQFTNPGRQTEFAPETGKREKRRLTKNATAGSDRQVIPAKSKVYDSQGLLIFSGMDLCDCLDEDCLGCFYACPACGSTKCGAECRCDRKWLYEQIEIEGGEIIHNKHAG", "UniProt P53004": "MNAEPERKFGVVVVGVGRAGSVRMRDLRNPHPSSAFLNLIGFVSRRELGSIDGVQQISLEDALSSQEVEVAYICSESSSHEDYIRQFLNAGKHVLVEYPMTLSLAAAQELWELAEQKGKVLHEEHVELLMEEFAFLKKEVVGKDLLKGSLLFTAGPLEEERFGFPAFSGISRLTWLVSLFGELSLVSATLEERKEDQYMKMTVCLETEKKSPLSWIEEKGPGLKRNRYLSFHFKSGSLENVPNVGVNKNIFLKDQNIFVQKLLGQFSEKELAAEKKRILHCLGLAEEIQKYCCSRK"},
  "source": "the supplement of paper PMC7666118",
  "note": "This is one part of the list.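 Rule for the calls: active = dose-dependent thermal stabilisation significant by F-test of dose-response against flat model at 10% FDR; inactive = not significant.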",
  "data": [
    {"compound": "Nc1nc2c(ncn2[C@@H]2O[C@H](COP(=O)(O)OP(=O)(O)OP(=O)(O)O)[C@@H](O)[C@H]2O)c(=O)[nH]1", "assay": "dose-dependent thermal stabilisation call (2D-TPP, DLPTP, 10% FDR) (binary (1 = stabilised)); higher = stabilised by the compound", "settings": "system: Jurkat gel-filtered lysate; concentration range 1-500 µM", "values": [
      {"target": "BAG4 (UniProt O95429)", "dose-dependent thermal stabilisation call": "inactive: 0"},
      {"target": "ARHGAP32 (UniProt A7KAX9)", "dose-dependent thermal stabilisation call": "active: 1"},
      {"target": "BORA (UniProt Q6PGQ7)", "dose-dependent thermal stabilisation call": "inactive: 0"},
      {"target": "C1orf198 (UniProt Q9H425)", "dose-dependent thermal stabilisation call": "inactive: 0"},
      {"target": "BAD (UniProt Q92934)", "dose-dependent thermal stabilisation call": "inactive: 0"},
      {"target": "ARID1A (UniProt O14497)", "dose-dependent thermal stabilisation call": "inactive: 0"},
      {"target": "CAMSAP3 (UniProt Q9P1Y5)", "dose-dependent thermal stabilisation call": "inactive: 0"},
      {"target": "BCAT1 (UniProt P54687)", "dose-dependent thermal stabilisation call": "active: 1"},
      {"target": "BAG1 (UniProt Q99933)", "dose-dependent thermal stabilisation call": "inactive: 0"},
      {"target": "ATPAF2 (UniProt Q8N5M1)", "dose-dependent thermal stabilisation call": "inactive: 0"},
      {"target": "AVEN (UniProt Q9NQS1)", "dose-dependent thermal stabilisation call": "inactive: 0"},
      {"target": "BUB3 (UniProt O43684)", "dose-dependent thermal stabilisation call": "inactive: 0"},
      {"target": "C9orf78 (UniProt Q9NZ63)", "dose-dependent thermal stabilisation call": "inactive: 0"},
      {"target": "C16orf87 (UniProt Q6PH81)", "dose-dependent thermal stabilisation call": "inactive: 0"},
      {"target": "C14orf159 (UniProt Q7Z3D6)", "dose-dependent thermal stabilisation call": "inactive: 0"},
      {"target": "BLVRB (UniProt P30043)", "dose-dependent thermal stabilisation call": "inactive: 0"},
      {"target": "ARHGAP5 (UniProt Q13017)", "dose-dependent thermal stabilisation call": "inactive: 0"},
      {"target": "ATG2A (UniProt Q2TAZ0)", "dose-dependent thermal stabilisation call": "inactive: 0"},
      {"target": "C2orf49 (UniProt Q9BVC5)", "dose-dependent thermal stabilisation call": "inactive: 0"},
      {"target": "BRD2 (UniProt P25440)", "dose-dependent thermal stabilisation call": "inactive: 0"},
      {"target": "CAPZA1 (UniProt P52907)", "dose-dependent thermal stabilisation call": "inactive: 0"},
      {"target": "BACH2 (UniProt Q9BYV9)", "dose-dependent thermal stabilisation call": "inactive: 0"},
      {"target": "BRD4 (UniProt O60885)", "dose-dependent thermal stabilisation call": "inactive: 0"},
      {"target": "ATG101 (UniProt Q9BSB4)", "dose-dependent thermal stabilisation call": "inactive: 0"},
      {"target": "ATOX1 (UniProt O00244)", "dose-dependent thermal stabilisation call": "inactive: 0"},
      {"target": "BDP1 (UniProt A6H8Y1)", "dose-dependent thermal stabilisation call": "inactive: 0"},
      {"target": "C14orf166 (UniProt Q9Y224)", "dose-dependent thermal stabilisation call": "inactive: 0"},
      {"target": "BLMH (UniProt Q13867)", "dose-dependent thermal stabilisation call": "inactive: 0"},
      {"target": "BICD2 (UniProt Q8TD16)", "dose-dependent thermal stabilisation call": "inactive: 0"},
      {"target": "BSDC1 (UniProt Q9NW68)", "dose-dependent thermal stabilisation call": "inactive: 0"},
      {"target": "BCAS3 (UniProt Q9H6U6)", "dose-dependent thermal stabilisation call": "inactive: 0"},
      {"target": "ATP6V1F (UniProt Q16864)", "dose-dependent thermal stabilisation call": "inactive: 0"},
      {"target": "ASB6 (UniProt Q9NWX5)", "dose-dependent thermal stabilisation call": "inactive: 0"},
      {"target": "BAG3 (UniProt O95817)", "dose-dependent thermal stabilisation call": "inactive: 0"},
      {"target": "ARL14EP (UniProt Q8N8R7)", "dose-dependent thermal stabilisation call": "inactive: 0"},
      {"target": "BLVRA (UniProt P53004)", "dose-dependent thermal stabilisation call": "inactive: 0"}
    ]}
  ]
}
